Assay results taken from the supplement of paper PMC12823440, “Inhibitors supercharge kinase turnover through native proteolytic circuits” (Nature, 2025).
Counter-ions that a name gives are not always drawn. The list shows a part of the results. Hit calls seldom repeat between salt and free forms of one compound.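 Kinases, fused to nanoluciferase, were expressed in K562 cells; luminescence was measured every 4 h from 2 to 18 h as percent of control (DMSO = 100%, positive control = 0%). A time point is decreased if signal falls significantly (2 sigma). Hits were called by the authors by a rule that is not shown; the count of time points alone does not decide it.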

The chains behind the UniProt entries cited, without tags or fusion partners. Where a name states a change or a piece, a line headed by the entry shows the natural chain unless it says otherwise.
UniProt O75460: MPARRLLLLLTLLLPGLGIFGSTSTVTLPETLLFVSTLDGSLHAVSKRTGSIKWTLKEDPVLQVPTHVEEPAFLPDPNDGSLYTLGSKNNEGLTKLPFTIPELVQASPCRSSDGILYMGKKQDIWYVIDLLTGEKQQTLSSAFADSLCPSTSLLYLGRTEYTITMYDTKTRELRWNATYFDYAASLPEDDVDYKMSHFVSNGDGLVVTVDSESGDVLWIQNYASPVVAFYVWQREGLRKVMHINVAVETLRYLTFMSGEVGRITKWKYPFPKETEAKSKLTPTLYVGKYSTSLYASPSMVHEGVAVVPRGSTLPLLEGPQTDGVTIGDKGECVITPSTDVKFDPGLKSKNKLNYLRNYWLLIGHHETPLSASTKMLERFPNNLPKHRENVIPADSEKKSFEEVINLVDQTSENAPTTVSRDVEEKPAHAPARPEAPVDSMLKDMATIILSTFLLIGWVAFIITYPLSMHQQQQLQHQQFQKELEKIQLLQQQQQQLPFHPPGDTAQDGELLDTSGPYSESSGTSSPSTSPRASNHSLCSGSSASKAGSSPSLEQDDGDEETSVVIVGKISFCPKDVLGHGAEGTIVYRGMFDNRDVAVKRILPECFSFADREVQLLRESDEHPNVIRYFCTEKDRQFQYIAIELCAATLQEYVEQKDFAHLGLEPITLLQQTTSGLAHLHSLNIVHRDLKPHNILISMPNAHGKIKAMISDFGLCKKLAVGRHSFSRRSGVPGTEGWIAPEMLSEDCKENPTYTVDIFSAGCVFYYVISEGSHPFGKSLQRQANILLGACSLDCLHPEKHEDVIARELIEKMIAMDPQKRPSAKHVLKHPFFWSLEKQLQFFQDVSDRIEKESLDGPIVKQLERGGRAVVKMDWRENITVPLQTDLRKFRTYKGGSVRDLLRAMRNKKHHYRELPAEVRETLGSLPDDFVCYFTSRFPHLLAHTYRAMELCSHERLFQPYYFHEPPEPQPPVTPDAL
UniProt P11362, whole entry, looked up: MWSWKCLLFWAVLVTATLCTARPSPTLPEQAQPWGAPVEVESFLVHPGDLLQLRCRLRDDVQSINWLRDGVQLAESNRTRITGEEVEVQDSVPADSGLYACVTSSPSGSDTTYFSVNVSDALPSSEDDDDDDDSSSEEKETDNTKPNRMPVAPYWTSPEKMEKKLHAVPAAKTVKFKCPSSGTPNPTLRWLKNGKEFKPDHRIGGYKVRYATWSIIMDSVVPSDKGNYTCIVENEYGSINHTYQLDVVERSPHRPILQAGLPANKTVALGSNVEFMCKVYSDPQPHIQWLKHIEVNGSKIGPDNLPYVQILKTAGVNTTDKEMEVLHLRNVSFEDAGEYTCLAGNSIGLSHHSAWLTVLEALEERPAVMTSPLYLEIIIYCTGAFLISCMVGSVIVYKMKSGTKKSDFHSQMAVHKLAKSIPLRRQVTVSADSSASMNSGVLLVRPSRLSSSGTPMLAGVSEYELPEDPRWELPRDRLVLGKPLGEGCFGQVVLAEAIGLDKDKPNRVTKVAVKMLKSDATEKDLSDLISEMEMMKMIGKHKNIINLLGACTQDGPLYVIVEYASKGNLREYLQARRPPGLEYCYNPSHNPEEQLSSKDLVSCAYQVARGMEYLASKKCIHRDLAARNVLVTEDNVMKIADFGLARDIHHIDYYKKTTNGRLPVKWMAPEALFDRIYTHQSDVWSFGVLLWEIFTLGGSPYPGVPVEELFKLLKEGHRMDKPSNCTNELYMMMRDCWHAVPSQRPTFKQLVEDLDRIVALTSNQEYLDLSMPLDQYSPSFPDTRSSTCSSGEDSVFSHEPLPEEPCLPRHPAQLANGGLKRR
UniProt P22607, whole entry, looked up: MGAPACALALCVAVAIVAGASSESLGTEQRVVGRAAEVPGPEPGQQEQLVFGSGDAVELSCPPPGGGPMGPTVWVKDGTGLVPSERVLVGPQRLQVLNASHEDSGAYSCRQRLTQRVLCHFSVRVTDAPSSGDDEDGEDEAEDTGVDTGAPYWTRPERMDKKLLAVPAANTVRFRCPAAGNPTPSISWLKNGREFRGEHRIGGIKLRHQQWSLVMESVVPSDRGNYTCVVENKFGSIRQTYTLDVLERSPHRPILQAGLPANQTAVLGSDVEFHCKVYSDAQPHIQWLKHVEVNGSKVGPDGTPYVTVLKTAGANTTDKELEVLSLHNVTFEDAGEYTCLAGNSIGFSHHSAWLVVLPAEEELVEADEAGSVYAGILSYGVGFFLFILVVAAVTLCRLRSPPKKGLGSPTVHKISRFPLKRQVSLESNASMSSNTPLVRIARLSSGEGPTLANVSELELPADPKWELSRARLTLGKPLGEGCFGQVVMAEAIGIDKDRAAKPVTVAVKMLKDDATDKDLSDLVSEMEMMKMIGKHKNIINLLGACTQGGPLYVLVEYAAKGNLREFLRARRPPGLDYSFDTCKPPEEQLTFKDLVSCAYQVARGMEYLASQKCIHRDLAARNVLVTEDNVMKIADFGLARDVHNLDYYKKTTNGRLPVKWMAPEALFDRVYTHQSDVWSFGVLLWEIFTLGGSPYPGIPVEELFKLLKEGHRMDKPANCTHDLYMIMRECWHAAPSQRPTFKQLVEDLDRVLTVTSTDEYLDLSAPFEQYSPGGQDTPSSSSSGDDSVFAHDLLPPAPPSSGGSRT
UniProt P36888, whole entry: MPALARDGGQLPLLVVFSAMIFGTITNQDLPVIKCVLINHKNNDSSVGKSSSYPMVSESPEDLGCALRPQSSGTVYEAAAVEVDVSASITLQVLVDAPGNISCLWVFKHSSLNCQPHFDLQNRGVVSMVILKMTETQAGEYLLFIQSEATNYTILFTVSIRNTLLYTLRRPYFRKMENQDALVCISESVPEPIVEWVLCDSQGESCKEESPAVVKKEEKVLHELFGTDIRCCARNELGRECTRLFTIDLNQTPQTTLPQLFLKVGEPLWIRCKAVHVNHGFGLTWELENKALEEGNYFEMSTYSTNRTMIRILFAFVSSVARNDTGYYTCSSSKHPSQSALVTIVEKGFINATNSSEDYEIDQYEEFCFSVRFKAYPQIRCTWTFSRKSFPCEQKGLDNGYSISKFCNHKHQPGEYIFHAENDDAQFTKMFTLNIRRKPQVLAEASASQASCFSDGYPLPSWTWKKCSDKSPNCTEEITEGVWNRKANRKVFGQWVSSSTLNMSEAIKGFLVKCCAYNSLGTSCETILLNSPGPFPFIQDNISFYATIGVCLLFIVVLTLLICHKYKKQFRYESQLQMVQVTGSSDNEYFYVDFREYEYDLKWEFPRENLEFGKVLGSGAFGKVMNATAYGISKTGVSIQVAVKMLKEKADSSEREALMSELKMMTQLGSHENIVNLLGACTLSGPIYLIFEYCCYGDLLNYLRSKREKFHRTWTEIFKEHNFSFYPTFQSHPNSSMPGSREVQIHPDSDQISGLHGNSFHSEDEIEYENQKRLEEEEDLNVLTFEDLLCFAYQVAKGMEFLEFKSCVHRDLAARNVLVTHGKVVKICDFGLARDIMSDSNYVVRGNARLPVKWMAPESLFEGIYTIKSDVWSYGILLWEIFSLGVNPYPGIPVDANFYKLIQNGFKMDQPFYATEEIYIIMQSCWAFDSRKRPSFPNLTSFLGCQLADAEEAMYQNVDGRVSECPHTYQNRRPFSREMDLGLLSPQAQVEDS
UniProt P06241, whole entry, looked up: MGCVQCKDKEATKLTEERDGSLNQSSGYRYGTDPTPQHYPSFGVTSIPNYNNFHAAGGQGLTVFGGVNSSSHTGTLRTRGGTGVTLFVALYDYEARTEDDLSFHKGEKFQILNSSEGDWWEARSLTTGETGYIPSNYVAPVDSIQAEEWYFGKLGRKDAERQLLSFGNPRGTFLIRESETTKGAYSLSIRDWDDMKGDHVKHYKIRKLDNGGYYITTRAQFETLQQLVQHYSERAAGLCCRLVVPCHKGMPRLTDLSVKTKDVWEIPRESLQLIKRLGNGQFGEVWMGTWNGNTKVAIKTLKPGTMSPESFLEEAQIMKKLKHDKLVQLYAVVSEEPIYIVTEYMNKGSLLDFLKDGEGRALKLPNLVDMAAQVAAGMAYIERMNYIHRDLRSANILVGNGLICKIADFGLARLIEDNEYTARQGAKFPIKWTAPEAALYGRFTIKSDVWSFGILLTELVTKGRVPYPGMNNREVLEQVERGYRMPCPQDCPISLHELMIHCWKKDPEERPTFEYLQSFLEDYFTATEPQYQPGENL
UniProt P49840: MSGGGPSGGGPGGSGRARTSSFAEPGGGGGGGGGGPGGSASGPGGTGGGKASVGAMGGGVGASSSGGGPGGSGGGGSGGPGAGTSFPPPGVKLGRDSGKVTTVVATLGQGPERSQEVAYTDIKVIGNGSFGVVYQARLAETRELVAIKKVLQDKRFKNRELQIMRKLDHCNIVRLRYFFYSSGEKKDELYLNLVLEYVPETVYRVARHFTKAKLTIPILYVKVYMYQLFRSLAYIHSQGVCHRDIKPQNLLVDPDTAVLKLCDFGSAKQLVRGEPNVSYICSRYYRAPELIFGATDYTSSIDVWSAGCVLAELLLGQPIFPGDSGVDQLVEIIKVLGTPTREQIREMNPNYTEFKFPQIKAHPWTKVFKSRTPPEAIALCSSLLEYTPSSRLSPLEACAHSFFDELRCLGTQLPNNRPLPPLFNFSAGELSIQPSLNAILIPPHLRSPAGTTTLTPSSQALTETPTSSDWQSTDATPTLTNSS
UniProt Q9Y616: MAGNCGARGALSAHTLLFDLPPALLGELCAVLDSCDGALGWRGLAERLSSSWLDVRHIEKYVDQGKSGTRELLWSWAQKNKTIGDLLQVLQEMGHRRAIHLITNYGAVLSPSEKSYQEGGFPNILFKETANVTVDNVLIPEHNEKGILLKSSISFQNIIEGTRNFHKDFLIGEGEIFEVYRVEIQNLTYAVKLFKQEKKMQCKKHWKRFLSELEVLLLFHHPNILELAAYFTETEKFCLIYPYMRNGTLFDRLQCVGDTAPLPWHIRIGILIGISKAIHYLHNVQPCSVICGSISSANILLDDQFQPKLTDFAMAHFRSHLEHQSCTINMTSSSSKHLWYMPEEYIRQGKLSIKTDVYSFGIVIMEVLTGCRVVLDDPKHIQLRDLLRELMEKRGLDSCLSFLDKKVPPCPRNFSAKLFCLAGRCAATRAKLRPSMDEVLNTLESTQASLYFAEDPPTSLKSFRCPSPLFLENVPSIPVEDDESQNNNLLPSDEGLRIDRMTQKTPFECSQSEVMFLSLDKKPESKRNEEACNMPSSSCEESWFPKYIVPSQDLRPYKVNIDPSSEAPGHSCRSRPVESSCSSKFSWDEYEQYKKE
UniProt P53667: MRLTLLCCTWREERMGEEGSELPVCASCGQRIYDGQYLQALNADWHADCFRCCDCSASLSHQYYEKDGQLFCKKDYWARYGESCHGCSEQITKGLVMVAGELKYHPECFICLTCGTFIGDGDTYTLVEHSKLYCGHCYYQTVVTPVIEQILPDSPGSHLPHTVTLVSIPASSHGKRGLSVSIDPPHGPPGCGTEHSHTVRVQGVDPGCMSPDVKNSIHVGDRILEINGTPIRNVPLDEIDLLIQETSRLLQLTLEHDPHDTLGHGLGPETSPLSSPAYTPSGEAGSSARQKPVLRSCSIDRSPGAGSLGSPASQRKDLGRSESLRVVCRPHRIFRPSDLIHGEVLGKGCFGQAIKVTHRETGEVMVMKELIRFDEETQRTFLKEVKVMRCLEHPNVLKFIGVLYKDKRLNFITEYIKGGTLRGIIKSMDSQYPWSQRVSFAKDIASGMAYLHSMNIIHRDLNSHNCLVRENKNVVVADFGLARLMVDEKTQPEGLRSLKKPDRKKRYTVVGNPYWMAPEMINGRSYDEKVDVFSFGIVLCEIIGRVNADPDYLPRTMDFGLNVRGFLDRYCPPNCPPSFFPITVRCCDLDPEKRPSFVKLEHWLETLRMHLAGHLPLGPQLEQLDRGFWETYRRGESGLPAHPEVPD
UniProt P53671: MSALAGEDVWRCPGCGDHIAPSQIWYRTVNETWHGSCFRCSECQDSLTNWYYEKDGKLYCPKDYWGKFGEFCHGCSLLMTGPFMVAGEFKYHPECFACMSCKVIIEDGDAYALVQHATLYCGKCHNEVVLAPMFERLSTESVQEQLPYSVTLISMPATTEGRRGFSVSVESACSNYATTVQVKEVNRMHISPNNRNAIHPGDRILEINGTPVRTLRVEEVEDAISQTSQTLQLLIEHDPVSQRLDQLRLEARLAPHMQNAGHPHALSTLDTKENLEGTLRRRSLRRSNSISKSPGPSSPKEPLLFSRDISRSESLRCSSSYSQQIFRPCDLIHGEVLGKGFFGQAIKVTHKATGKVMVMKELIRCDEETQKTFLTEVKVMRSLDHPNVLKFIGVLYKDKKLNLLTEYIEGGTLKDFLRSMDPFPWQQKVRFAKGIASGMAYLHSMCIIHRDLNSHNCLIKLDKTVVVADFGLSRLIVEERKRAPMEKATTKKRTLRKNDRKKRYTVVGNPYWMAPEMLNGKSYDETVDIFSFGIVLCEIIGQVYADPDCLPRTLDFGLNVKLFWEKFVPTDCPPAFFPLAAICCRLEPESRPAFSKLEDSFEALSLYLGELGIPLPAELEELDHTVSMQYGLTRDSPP

Assays:
Assay in all cases: kinase-Nluc reporter destabilization hit call (1 = scored as downregulated) (binary); higher = compound decreases kinase abundance
Conditions in all cases: K562; 2-18 h
ERN1 = ERN1 (UniProt O75460)
FGFR1 = FGFR1 (UniProt P11362)
FGFR2 = FGFR2 (UniProt P21802)
FGFR3 = FGFR3 (UniProt P22607)
FGR = FGR (UniProt P09769)
FLT3 = FLT3 (UniProt P36888)
FYN = FYN (UniProt P06241)
GSK3A = GSK3A (UniProt P49840)
HER2 = HER2 (UniProt P04626)
INSRR = INSRR (UniProt P14616)
IRAK3 = IRAK3 (UniProt Q9Y616)
JAK1 = JAK1 (UniProt P23458)
LCK = LCK (UniProt P06239)
LIMK1 = LIMK1 (UniProt P53667)
LIMK2 = LIMK2 (UniProt P53671)
LMTK2 = LMTK2 (UniProt Q8IWU2)
LYN = LYN (UniProt P07948)
MAP2K1 = MAP2K1 (UniProt Q02750)
MAP2K2 = MAP2K2 (UniProt P36507)
MAP4K2 = MAP4K2 (UniProt Q12851)

| SMILES | kinase-Nluc reporter destabilization hit call (ERN1) | kinase-Nluc reporter destabilization hit call (FGFR1) | kinase-Nluc reporter destabilization hit call (FGFR2) | kinase-Nluc reporter destabilization hit call (FGFR3) | kinase-Nluc reporter destabilization hit call (FGR) | kinase-Nluc reporter destabilization hit call (FLT3) | kinase-Nluc reporter destabilization hit call (FYN) | kinase-Nluc reporter destabilization hit call (GSK3A) | kinase-Nluc reporter destabilization hit call (HER2) | kinase-Nluc reporter destabilization hit call (INSRR) | kinase-Nluc reporter destabilization hit call (IRAK3) | kinase-Nluc reporter destabilization hit call (JAK1) | kinase-Nluc reporter destabilization hit call (LCK) | kinase-Nluc reporter destabilization hit call (LIMK1) | kinase-Nluc reporter destabilization hit call (LIMK2) | kinase-Nluc reporter destabilization hit call (LMTK2) | kinase-Nluc reporter destabilization hit call (LYN) | kinase-Nluc reporter destabilization hit call (MAP2K1) | kinase-Nluc reporter destabilization hit call (MAP2K2) | kinase-Nluc reporter destabilization hit call (MAP4K2) |
| --- | --- | --- | --- | --- | --- | --- | --- | --- | --- | --- | --- | --- | --- | --- | --- | --- | --- | --- | --- | --- |
| CC(C)c1cnn2c(NCc3ccccc3)cc(NC[C@H]3CCNC[C@@H]3O)nc12 [Samuraciclib (hydrochloride)] (10 µM) | inactive: 0 | inactive: 0 | inactive: 0 | inactive: 0 | inactive: 0 | inactive: 0 | inactive: 0 | inactive: 0 | inactive: 0 | inactive: 0 | inactive: 0 | inactive: 0 | inactive: 0 | inactive: 0 | inactive: 0 | inactive: 0 | inactive: 0 | inactive: 0 | inactive: 0 | inactive: 0 |
| COc1cc2nc(C)nc(N[C@H](C)c3cc(N)cc(C(F)(F)F)c3)c2cc1O[C@H]1CCOC1 (10 µM) | inactive: 0 | inactive: 0 | inactive: 0 | inactive: 0 | inactive: 0 | inactive: 0 | inactive: 0 | inactive: 0 | inactive: 0 | inactive: 0 | inactive: 0 | inactive: 0 | inactive: 0 | inactive: 0 | inactive: 0 | inactive: 0 | inactive: 0 | inactive: 0 | inactive: 0 | inactive: 0 |
| CCOc1cc2ncc(C#N)c(Nc3ccc(OCc4ccccn4)c(Cl)c3)c2cc1NC(=O)/C=C/CN(C)C [Neratinib] (10 µM) | inactive: 0 | inactive: 0 | inactive: 0 | inactive: 0 | inactive: 0 | inactive: 0 | inactive: 0 | inactive: 0 | active: 1 | inactive: 0 | inactive: 0 | inactive: 0 | inactive: 0 | inactive: 0 | inactive: 0 | inactive: 0 | inactive: 0 | inactive: 0 | inactive: 0 | inactive: 0 |
| CCc1nc(-c2cccc(C)c2)c(-c2ccnc(NC(=O)c3ccccc3)c2)s1 (10 µM) | inactive: 0 | inactive: 0 | inactive: 0 | inactive: 0 | inactive: 0 | inactive: 0 | inactive: 0 | inactive: 0 | inactive: 0 | inactive: 0 | inactive: 0 | inactive: 0 | inactive: 0 | inactive: 0 | inactive: 0 | inactive: 0 | inactive: 0 | inactive: 0 | inactive: 0 | inactive: 0 |
| Cc1cccc(Cn2nc(C3CC3)c3c(NC(=O)c4cnc5cc(OCCN6CCN(C)CC6)ccn45)cccc32)n1 (10 µM) | inactive: 0 | inactive: 0 | inactive: 0 | inactive: 0 | inactive: 0 | inactive: 0 | inactive: 0 | inactive: 0 | inactive: 0 | inactive: 0 | inactive: 0 | inactive: 0 | inactive: 0 | inactive: 0 | inactive: 0 | inactive: 0 | inactive: 0 | inactive: 0 | inactive: 0 | inactive: 0 |
| Cc1ncc(-c2ccnc(Nc3ccc(S(C)(=O)=O)cc3)n2)n1C(C)C (2.5 µM) | inactive: 0 | inactive: 0 | inactive: 0 | inactive: 0 | inactive: 0 | inactive: 0 | inactive: 0 | inactive: 0 | inactive: 0 | inactive: 0 | inactive: 0 | inactive: 0 | inactive: 0 | inactive: 0 | inactive: 0 | inactive: 0 | inactive: 0 | inactive: 0 | inactive: 0 | inactive: 0 |
| CC(C)(C#N)c1ccc(N2C(=O)OCc3cnc4ccc(-c5cnc6ccccc6c5)cc4c32)cc1 (2.5 µM) | inactive: 0 | inactive: 0 | inactive: 0 | inactive: 0 | inactive: 0 | inactive: 0 | inactive: 0 | inactive: 0 | active: 1 | inactive: 0 | inactive: 0 | inactive: 0 | inactive: 0 | inactive: 0 | inactive: 0 | inactive: 0 | inactive: 0 | inactive: 0 | inactive: 0 | inactive: 0 |
| CCN(CCO)CCCOc1ccc2c(Nc3cc(CC(=O)Nc4cccc(F)c4)[nH]n3)ncnc2c1 [Barasertib-HQPA] (10 µM) | inactive: 0 | inactive: 0 | inactive: 0 | inactive: 0 | inactive: 0 | inactive: 0 | inactive: 0 | inactive: 0 | inactive: 0 | inactive: 0 | inactive: 0 | inactive: 0 | – | inactive: 0 | inactive: 0 | inactive: 0 | inactive: 0 | inactive: 0 | inactive: 0 | inactive: 0 |
| COCCOc1cc2nccc(Nc3n[nH]c(C)c3C)c2cc1S(=O)(=O)C(C)(C)C [RIP2 kinase inhibitor 2] (2.5 µM) | inactive: 0 | inactive: 0 | inactive: 0 | inactive: 0 | inactive: 0 | inactive: 0 | inactive: 0 | inactive: 0 | inactive: 0 | inactive: 0 | inactive: 0 | inactive: 0 | inactive: 0 | inactive: 0 | inactive: 0 | inactive: 0 | inactive: 0 | inactive: 0 | inactive: 0 | inactive: 0 |
| O=C(Nc1cc(C(F)(F)F)ccc1N1CCN(Cc2ccccn2)CC1)c1ccc(-c2ccncc2)o1 (10 µM) | inactive: 0 | inactive: 0 | inactive: 0 | inactive: 0 | inactive: 0 | inactive: 0 | inactive: 0 | inactive: 0 | active: 1 | inactive: 0 | inactive: 0 | inactive: 0 | inactive: 0 | inactive: 0 | inactive: 0 | inactive: 0 | inactive: 0 | inactive: 0 | inactive: 0 | inactive: 0 |
| CCN(CCCOc1ccc2c(Nc3cc(CC(=O)Nc4cccc(F)c4)[nH]n3)ncnc2c1)CCOP(=O)(O)O [Barasertib] (10 µM) | inactive: 0 | inactive: 0 | inactive: 0 | inactive: 0 | inactive: 0 | inactive: 0 | inactive: 0 | inactive: 0 | inactive: 0 | inactive: 0 | inactive: 0 | inactive: 0 | inactive: 0 | inactive: 0 | inactive: 0 | inactive: 0 | inactive: 0 | inactive: 0 | inactive: 0 | inactive: 0 |
| Cc1ccc(S(=O)(=O)Nc2nc3ccccc3nc2Nc2ccc3nsnc3c2)cc1 [Pilaralisib analogue] (10 µM) | inactive: 0 | inactive: 0 | inactive: 0 | inactive: 0 | inactive: 0 | active: 1 | inactive: 0 | inactive: 0 | inactive: 0 | inactive: 0 | inactive: 0 | inactive: 0 | inactive: 0 | – | inactive: 0 | inactive: 0 | inactive: 0 | inactive: 0 | inactive: 0 | inactive: 0 |
| CC(C)C(=O)Nc1ncc(-c2cc(C(F)F)nn2-c2c(Cl)cccc2Cl)s1 (10 µM) | inactive: 0 | inactive: 0 | inactive: 0 | inactive: 0 | inactive: 0 | inactive: 0 | inactive: 0 | inactive: 0 | active: 1 | inactive: 0 | inactive: 0 | inactive: 0 | inactive: 0 | – | – | inactive: 0 | inactive: 0 | inactive: 0 | inactive: 0 | inactive: 0 |
| Cc1c[nH]c2ccccc12 [Skatole] (10 µM) | inactive: 0 | inactive: 0 | inactive: 0 | inactive: 0 | inactive: 0 | inactive: 0 | inactive: 0 | inactive: 0 | inactive: 0 | inactive: 0 | inactive: 0 | inactive: 0 | inactive: 0 | inactive: 0 | inactive: 0 | inactive: 0 | inactive: 0 | inactive: 0 | inactive: 0 | inactive: 0 |
| COc1cc(Nc2ncc3c(n2)-c2ccc(Cl)cc2C(c2c(F)cccc2OC)=NC3)ccc1C(=O)O [Alisertib] (2.5 µM) | inactive: 0 | inactive: 0 | inactive: 0 | inactive: 0 | inactive: 0 | inactive: 0 | inactive: 0 | inactive: 0 | inactive: 0 | inactive: 0 | inactive: 0 | inactive: 0 | – | inactive: 0 | inactive: 0 | inactive: 0 | inactive: 0 | inactive: 0 | inactive: 0 | inactive: 0 |
| C/C=C(/C)C(=O)O[C@H]1Cc2cc3ccc(=O)oc3cc2OC1(C)C [Decursinol angelate] (10 µM) | inactive: 0 | inactive: 0 | inactive: 0 | inactive: 0 | inactive: 0 | inactive: 0 | inactive: 0 | inactive: 0 | inactive: 0 | inactive: 0 | inactive: 0 | inactive: 0 | inactive: 0 | inactive: 0 | inactive: 0 | inactive: 0 | inactive: 0 | inactive: 0 | inactive: 0 | inactive: 0 |
| Oc1cc(O)cc(/C=C/c2ccc(O)c(O)c2)c1 [Piceatannol] (10 µM) | inactive: 0 | inactive: 0 | inactive: 0 | inactive: 0 | inactive: 0 | inactive: 0 | inactive: 0 | inactive: 0 | inactive: 0 | inactive: 0 | inactive: 0 | inactive: 0 | – | inactive: 0 | inactive: 0 | inactive: 0 | inactive: 0 | inactive: 0 | inactive: 0 | inactive: 0 |
| CN(c1ncccc1CNc1nc(Nc2ccc3c(c2)CC(=O)N3)ncc1C(F)(F)F)S(C)(=O)=O (2.5 µM) | inactive: 0 | inactive: 0 | inactive: 0 | inactive: 0 | inactive: 0 | inactive: 0 | inactive: 0 | inactive: 0 | inactive: 0 | inactive: 0 | inactive: 0 | inactive: 0 | – | inactive: 0 | inactive: 0 | inactive: 0 | inactive: 0 | inactive: 0 | inactive: 0 | inactive: 0 |

An excerpt from above in order of length of the SMILES, high to low.

| SMILES | kinase-Nluc reporter destabilization hit call (ERN1) | kinase-Nluc reporter destabilization hit call (FGFR1) | kinase-Nluc reporter destabilization hit call (FGFR2) | kinase-Nluc reporter destabilization hit call (FGFR3) | kinase-Nluc reporter destabilization hit call (FGR) | kinase-Nluc reporter destabilization hit call (FLT3) | kinase-Nluc reporter destabilization hit call (FYN) | kinase-Nluc reporter destabilization hit call (GSK3A) | kinase-Nluc reporter destabilization hit call (HER2) | kinase-Nluc reporter destabilization hit call (INSRR) | kinase-Nluc reporter destabilization hit call (IRAK3) | kinase-Nluc reporter destabilization hit call (JAK1) | kinase-Nluc reporter destabilization hit call (LCK) | kinase-Nluc reporter destabilization hit call (LIMK1) | kinase-Nluc reporter destabilization hit call (LIMK2) | kinase-Nluc reporter destabilization hit call (LMTK2) | kinase-Nluc reporter destabilization hit call (LYN) | kinase-Nluc reporter destabilization hit call (MAP2K1) | kinase-Nluc reporter destabilization hit call (MAP2K2) | kinase-Nluc reporter destabilization hit call (MAP4K2) |
| --- | --- | --- | --- | --- | --- | --- | --- | --- | --- | --- | --- | --- | --- | --- | --- | --- | --- | --- | --- | --- |
| CCN(CCO)CCCOc1ccc2c(Nc3cc(CC(=O)Nc4cccc(F)c4)[nH]n3)ncnc2c1 [Barasertib-HQPA] (10 µM) | inactive: 0 | inactive: 0 | inactive: 0 | inactive: 0 | inactive: 0 | inactive: 0 | inactive: 0 | inactive: 0 | inactive: 0 | inactive: 0 | inactive: 0 | inactive: 0 | – | inactive: 0 | inactive: 0 | inactive: 0 | inactive: 0 | inactive: 0 | inactive: 0 | inactive: 0 |
| COCCOc1cc2nccc(Nc3n[nH]c(C)c3C)c2cc1S(=O)(=O)C(C)(C)C [RIP2 kinase inhibitor 2] (2.5 µM) | inactive: 0 | inactive: 0 | inactive: 0 | inactive: 0 | inactive: 0 | inactive: 0 | inactive: 0 | inactive: 0 | inactive: 0 | inactive: 0 | inactive: 0 | inactive: 0 | inactive: 0 | inactive: 0 | inactive: 0 | inactive: 0 | inactive: 0 | inactive: 0 | inactive: 0 | inactive: 0 |
| CC(C)C(=O)Nc1ncc(-c2cc(C(F)F)nn2-c2c(Cl)cccc2Cl)s1 (10 µM) | inactive: 0 | inactive: 0 | inactive: 0 | inactive: 0 | inactive: 0 | inactive: 0 | inactive: 0 | inactive: 0 | active: 1 | inactive: 0 | inactive: 0 | inactive: 0 | inactive: 0 | – | – | inactive: 0 | inactive: 0 | inactive: 0 | inactive: 0 | inactive: 0 |
| Oc1cc(O)cc(/C=C/c2ccc(O)c(O)c2)c1 [Piceatannol] (10 µM) | inactive: 0 | inactive: 0 | inactive: 0 | inactive: 0 | inactive: 0 | inactive: 0 | inactive: 0 | inactive: 0 | inactive: 0 | inactive: 0 | inactive: 0 | inactive: 0 | – | inactive: 0 | inactive: 0 | inactive: 0 | inactive: 0 | inactive: 0 | inactive: 0 | inactive: 0 |
